29 molecules from PubChem BioAssay AID248 (DTP/NCI, 2004) can be followed below.

The subject of the assay is L1210 leukemia ip in BDF1 mice, survival T/C. The assay is described as follows: NCI In Vivo Anticancer Drug Screen. Data for tumor model L1210 Leukemia (intraperitoneal) in B6D2F1 (BDF1) mice. As to conditions: T/C endpoint: mean survival time, higher T/C = longer survival.
The mark [1] stands for this setting: dose: 20.0 mg/kg/injection, schedule: Q01DX001 (ip), vehicle: saline.
[2] abbreviates: dose: 40.0 mg/kg/injection, schedule: Q01DX001 (ip), vehicle: saline.
Setting [3] is: dose: 75.0 mg/kg/injection, schedule: Q01DX001 (ip), vehicle: saline.
Where [4] appears, read: dose: 80.0 mg/kg/injection, schedule: Q01DX001 (ip), vehicle: saline.
[5] abbreviates: dose: 300.0 mg/kg/injection, schedule: Q01DX001 (ip), vehicle: saline.
The mark [6] stands for this setting: dose: 400.0 mg/kg/injection, schedule: Q04DX003 (ip), vehicle: Klucel (hydroxypropylcellulose) (HPC).
Where [7] appears, read: dose: 50.0 mg/kg/injection, schedule: Q04DX003 (ip), vehicle: Klucel (hydroxypropylcellulose) (HPC).
[8] abbreviates: dose: 200.0 mg/kg/injection, schedule: Q04DX003 (ip), vehicle: Klucel (hydroxypropylcellulose) (HPC).
Setting [9] is: dose: 100.0 mg/kg/injection, schedule: Q04DX003 (ip), vehicle: Klucel (hydroxypropylcellulose) (HPC).
[10] abbreviates: dose: 50.0 mg/kg/injection, schedule: Q04DX002 (ip), vehicle: saline.
Where [11] appears, read: dose: 100.0 mg/kg/injection, schedule: Q01DX009 (ip), vehicle: Klucel (hydroxypropylcellulose) (HPC).
Setting [12] is: dose: 400.0 mg/kg/injection, schedule: Q01DX009 (ip), vehicle: Klucel (hydroxypropylcellulose) (HPC).

The list shows only some results of the screen, not a fair sample: it is rich in T/C values a quarter to a half above the control, in often repeated tests (any T/C) and in doses without a T/C. Other doses and runs of a compound stand elsewhere. T/C is the treated group as % of the vehicle group. Some entries give survivors of the animals treated and no T/C: the source files T/C as zero there, which appears to mark a toxic dose or a test without result, not a measured value. Some doses without a T/C left all or most animals alive at the check, yet need not have been tolerated: survival well below the control is almost never listed, so the zero probably covers shortened survival too. Survivors were counted at the toxicity check, usually on the fifth day, unless a day is given; later deaths do not show. Schedules are NCI's codes, taken here to give the interval after Q, in days (D) or hours (H), and the number of doses after X. Some entries hold several experiments; the results are listed from low to high. Some schedule codes hold Z or #, which are not explained here. Where survival is the endpoint, this PubChem deposit counts one and a half times the control or more as active, and values a quarter to a half above the control carry no call in these data; other NCI protocols may use other cut-offs.

As to `Cc1cc(Br)c2c(C)ccc(C)c2n1`, the survivor count under setting [1] is 1 of 6; the survivor count under setting [2] was 0 of 6; the survivor count under setting [3] was 0 of 6; the survivor count under setting [4] is given as 0 of 6; the survivor count (dose: 150.0 mg/kg/injection, schedule: Q01DX001 (ip), vehicle: saline) is given as 0 of 6; the survivor count under setting [5] was 0 of 6.
Take `O=C(O)C1CC1c1ccc(Br)cc1` (stereo unspecified): where the note is “dose: 400.0 mg/kg/injection, schedule: Q04DX002 (ip), vehicle: Klucel (hydroxypropylcellulose) (HPC)”, the survivor count is listed as 0 of 3.
For the molecule `COc1ccccc1-n1c(O)c(N=Nc2ccc(C)cc2)c(=O)n(-c2ccc(Cl)cc2)c1=S`, under “dose: 400.0 mg/kg/injection, schedule: Q01DX001 (ip), vehicle: Klucel (hydroxypropylcellulose) (HPC)”, the survivor count is listed as 1 of 6.
As to `C#CCSP(=O)(O)O`, the survivor count by setting is: (dose: 100.0 mg/kg/injection, schedule: Q01DX009 (ip), vehicle: saline with Tween-80) 3 of 3 and 6 of 6; (dose: 200.0 mg/kg/injection, schedule: Q01DX009 (ip), vehicle: saline with Tween-80) 6 of 6; (dose: 400.0 mg/kg/injection, schedule: Q01DX009 (ip), vehicle: saline with Tween-80) 0 of 6.
In the case of `CN=C(NC)c1ccc(Cl)c(Cl)c1`, the survivor count under setting [6] was 3 of 6.
In the case of `C=CC12CN(C)C3C4COC(CC41)C1(C(=O)Nc4ccccc41)C32` (stereo unspecified), the survivor count by setting is: (dose: 150.0 mg/kg/injection, schedule: Q01DX001 (ip), vehicle: other) 3 of 6; (dose: 300.0 mg/kg/injection, schedule: Q01DX001 (ip), vehicle: other) 0 of 6.
For `CCCCNC(=O)C1CC2c3cc(Br)cc4[nH]c(Br)c(c34)CC2N(C)C1` (stereo unspecified), the survivor count runs as follows: under setting [7], 4 of 4; under setting [8], 4 of 4.
Consider `Cc1cc2c(N)[nH]c(=O)nc2s1`, for which, where the note is “dose: 400.0 mg/kg/injection, schedule: Q04DX003 (ip), vehicle: water”, the survivor count was 2 of 6.
As to `O=C1CSC(c2ccccc2)N1` (stereo unspecified), the T/C under setting [9] is 134 % of control.
Regarding `CCOC(=O)CCc1ccc(N=NN(C)C)cc1`, for the setting “dose: 83.0 mg/kg/injection, schedule: Q01DX009 (ip), vehicle: saline”, the T/C is 125 % of control.
With `CC(C)=CCC(OC(=O)C=C(C)C)C1=CC(=O)c2c(O)ccc(O)c2C1=O` (stereo unspecified), the survivor count (dose: 25.0 mg/kg/injection, schedule: Q01DX009 (ip), vehicle: saline) is listed as 3 of 6 and the survivor count (dose: 50.0 mg/kg/injection, schedule: Q04DX003 (ip), vehicle: saline) is listed as 5 of 10.
Turning to `CC1=NCCN1CCNC(=O)c1ccc(C(=O)NCCN2CCN=C2C)cc1`, the survivor count is, setting by setting: under setting [1], 0 of 6; under setting [2], 0 of 6; under setting [4], 0 of 6; (dose: 100.0 mg/kg/injection, schedule: Q01DX001 (ip), vehicle: saline) 0 of 6; (dose: 200.0 mg/kg/injection, schedule: Q01DX001 (ip), vehicle: saline) 0 of 6; (dose: 400.0 mg/kg/injection, schedule: Q01DX001 (ip), vehicle: saline) 0 of 6.
`O=c1[nH]c2ccccc2c2ccc([N+](=O)[O-])cc12`: the survivor count (dose: 50.0 mg/kg/injection, schedule: Q01DX001 (ip), vehicle: carboxymethylcellulose (CMC)) is given as 4 of 4.
In the case of `CCN(C)CCC(CC=C(C)C)(C(N)=O)c1cccc2ccccc12` (stereo unspecified), the survivor count under setting [10] is listed as 2 of 3.
Regarding `CCN(CC)c1ccc(NC(C)=O)cc1`, the survivor count was 3 of 6 under setting [7], 0 of 6 under setting [9], 0 of 6 under setting [8] and 0 of 6 under setting [6].
Regarding `[CH3][Pb]([CH3])([CH3])[O]P(=O)(O)c1ccccc1`, the survivor count was 3 of 3 (dose: 25.0 mg/kg/injection, schedule: Q04DX002 (ip), vehicle: saline); 0 of 3 under setting [10]; 0 of 3 (dose: 100.0 mg/kg/injection, schedule: Q04DX002 (ip), vehicle: saline); 0 of 3 (dose: 200.0 mg/kg/injection, schedule: Q04DX002 (ip), vehicle: saline); 0 of 3 (dose: 400.0 mg/kg/injection, schedule: Q04DX002 (ip), vehicle: saline).
As for `CCOC(=O)C(=N\Nc1ccccc1OC)/C(C)=N\NC(N)=S`, the survivor count is given as 6 of 6 under setting [3]; 0 of 6 (dose: 300.0 mg/kg/injection, schedule: Q01DX001 (ip), vehicle: acetone); 0 of 6 under setting [5].
Regarding `O=[N+]([O-])c1cc(Cl)cc2c1-c1c(Cl)cc(Cl)cc1/C2=N/O`, the survivor count reads like this: under setting [11], 4 of 6; under setting [8], 6 of 6; under setting [6], 6 of 6.
For `CC(=O)N/C(N)=N/N=C(C)/C=N\N`, the survivor count is 1 of 6 (dose: 240.0 mg/kg/injection, schedule: Q01DX Z (oral), vehicle: carboxymethylcellulose (CMC)); 1 of 6 (dose: 480.0 mg/kg/injection, schedule: Q01DX Z (oral), vehicle: carboxymethylcellulose (CMC)); 1 of 6 (dose: 960.0 mg/kg/injection, schedule: Q01DX Z (oral), vehicle: carboxymethylcellulose (CMC)).
`O=C(Nc1ccc(Cl)c([N+](=O)[O-])c1)Oc1ccccc1F`: the survivor count under setting [12] is on record as 0 of 6.
`CC(C)CCCC(C)C1CCC2C3=CC=C4CC(OC(=O)c5cc([N+](=O)[O-])cc([N+](=O)[O-])c5)CCC4(C)C3CCC21C` (stereo unspecified): the survivor count (dose: 400.0 mg/kg/injection, schedule: Q01DX001 (ip), vehicle: other) is recorded as 3 of 3.
For `O=C(CCl)NC1=C(N2CC2)C(=O)c2ccccc2C1=O`, the survivor count under setting [8] is on record as 6 of 6.
For `Cc1[nH]c(=O)nc(Br)c1[N+](=O)[O-]`, under setting [6], the survivor count is 2 of 6.
In the case of `CCCCCCCCCCCCCCCCCC(=O)Nc1ccc(OC(=O)NC)cc1`, the survivor count under setting [12] was 6 of 6.
As for `OCCNc1nc2ccccc2c2ccccc12`, the survivor count (dose: 300.0 mg/kg/injection, schedule: Q01DX001 (ip), vehicle: carboxymethylcellulose (CMC)) is reported as 2 of 6.
Turning to `CCCCC(CC)CNC(C)=O` (stereo unspecified), the survivor count under setting [6] was 2 of 6.
For the molecule `O=COCC1CCC(NC(=O)N(CCCl)N=O)CC1` (stereo unspecified), the T/C (dose: 40.0 mg/kg/injection, schedule: Q01DX001 (ip), vehicle: Klucel (hydroxypropylcellulose) (HPC)) is 147 % of control. Further, the survivor count reads like this: (dose: 60.0 mg/kg/injection, schedule: Q01DX001 (ip), vehicle: Klucel (hydroxypropylcellulose) (HPC)) 5 of 9; (dose: 90.0 mg/kg/injection, schedule: Q01DX001 (ip), vehicle: Klucel (hydroxypropylcellulose) (HPC)) 6 of 9; (dose: 133.0 mg/kg/injection, schedule: Q01DX001 (ip), vehicle: Klucel (hydroxypropylcellulose) (HPC)) 7 of 10; (dose: 200.0 mg/kg/injection, schedule: Q01DX001 (ip), vehicle: Klucel (hydroxypropylcellulose) (HPC)) 3 of 10; (dose: 300.0 mg/kg/injection, schedule: Q01DX001 (ip), vehicle: Klucel (hydroxypropylcellulose) (HPC)) 1 of 10.
For the molecule `O=C1C=CC(=NBr)C=C1`, the survivor count reads like this: (dose: 50.0 mg/kg/injection, schedule: Q01DX009 (ip), vehicle: Klucel (hydroxypropylcellulose) (HPC)) 3 of 3; under setting [11], 0 of 3; (dose: 200.0 mg/kg/injection, schedule: Q01DX009 (ip), vehicle: Klucel (hydroxypropylcellulose) (HPC)) 0 of 3.
In the case of `c1ccc2c(c1)OP(OP1Oc3ccccc3O1)O2`, the survivor count reads like this: (dose: 150.0 mg/kg/injection, schedule: Q01DX009 (ip), vehicle: saline with Tween-80) 3 of 6; (dose: 225.0 mg/kg/injection, schedule: Q01DX009 (ip), vehicle: saline with Tween-80) 0 of 6; (dose: 335.0 mg/kg/injection, schedule: Q01DX009 (ip), vehicle: saline with Tween-80) 0 of 6.
